Test results taken from PMC4218966.
These are yes or no findings as the source states them, for the method shown. In cells and extracts the contact can be indirect.

The chains behind the UniProt entries cited, without tags or fusion partners.
UniProt Q8VIM5: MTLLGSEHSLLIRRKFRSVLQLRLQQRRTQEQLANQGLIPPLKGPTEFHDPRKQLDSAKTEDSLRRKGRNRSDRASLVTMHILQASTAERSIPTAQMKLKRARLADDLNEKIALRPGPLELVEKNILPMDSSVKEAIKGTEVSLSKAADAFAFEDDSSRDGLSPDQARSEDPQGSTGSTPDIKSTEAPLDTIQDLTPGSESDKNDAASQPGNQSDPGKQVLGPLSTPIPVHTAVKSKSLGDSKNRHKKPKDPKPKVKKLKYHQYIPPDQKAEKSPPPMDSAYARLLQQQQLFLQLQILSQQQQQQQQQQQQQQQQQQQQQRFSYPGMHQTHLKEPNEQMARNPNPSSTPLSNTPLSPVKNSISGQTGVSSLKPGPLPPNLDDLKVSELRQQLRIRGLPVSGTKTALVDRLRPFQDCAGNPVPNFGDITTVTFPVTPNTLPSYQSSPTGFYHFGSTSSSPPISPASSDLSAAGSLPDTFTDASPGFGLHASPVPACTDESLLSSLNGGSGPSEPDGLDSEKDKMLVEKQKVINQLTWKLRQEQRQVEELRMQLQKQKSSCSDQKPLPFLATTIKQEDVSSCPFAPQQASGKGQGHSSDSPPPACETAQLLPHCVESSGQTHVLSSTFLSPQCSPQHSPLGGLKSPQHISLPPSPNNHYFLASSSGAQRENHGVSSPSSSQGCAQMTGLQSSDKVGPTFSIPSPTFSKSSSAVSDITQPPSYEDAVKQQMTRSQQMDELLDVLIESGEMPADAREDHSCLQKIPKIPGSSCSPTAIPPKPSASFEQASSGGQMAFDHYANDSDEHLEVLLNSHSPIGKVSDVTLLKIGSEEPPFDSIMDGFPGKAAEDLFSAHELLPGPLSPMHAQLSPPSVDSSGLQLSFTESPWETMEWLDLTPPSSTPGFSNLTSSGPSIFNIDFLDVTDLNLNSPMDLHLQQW

Target: myocardin (UniProt Q8VIM5)
Assay: co-IP; immunoprecipitation in cultured VSMCs; told only in the discussion, no figure and no methods for this experiment

B1: Interferon regulatory factor 9 (protein, UniProt Q61179 1-399)
chain: MASGKVRCTRKLRSWIVEQVESGHFPGVCWDDAAKTMFRIPWKHAGKQDFREDQDAAIFKAWALFKEKHKDGDIGHPAVWKTRLRCALNKSSEFEEVPERGRMDVAEPYKVYRILPAGTLPNQPRNQKSPCKRSISCVSPEREENMENGRTNGVVNHSDSGSNIGGGGNGSNRSDSNSNCNSELEEGAGTTEATIREDPVFLEHQLPLNSDYSLLLTFIYGGRVVGKTQVHSLDCRLVAERSDSESSMEQVEFPKPDPLEPTQHLLNQLDRGVLVASNSRGLFVQRLCPIPISWNAPEAPPGPGPHLLPSNKCVELFKTTYFCRDLAQYFQGQGPPPKFQATLHFWEESPGSSHSQENLITVQMEQAFARHLLEKIPEEEKAALFLLQHTEQSPSALGH
Q: With B1 as the binder, how does the binding read?
A: no binding
